Test in all cases: log2 fold change, soluble protein after heating vs DMSO (PISA); higher = thermal stabilisation; K562 lysate, 10 uM; active = over 0.2 and 3.5 SD of the protein, either way, in both replicates (recomputed)
Compound in one assay: C#Cc1cccc(Nc2ncnc3cc(OCCOC)c(OCCOC)cc23)c1 [erlotinib]
The gist of the method: (§1)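 Quantification was by TMTpro 16plex LC-MS/MS with equalised channel sums, applied to the supernatant after 21,000xg for 90 min. Samples were crude K562 extract at 1 mg/mL protein in PBS pH 7.4 with 1 mM MgCl2, treated with 10 μM compound for 30 min, heated for 3 min across 48°C-58°C, pooled and brought to 0.5% NP-40 at 4°C. Values are log-two fold changes in thermal stability relative to solvent controls, from duplicates.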

Chains of the proteins cited; added tags and fusions are not shown. Lines headed by an entry give the natural chain unless they say otherwise; changes in a name come on top.
UniProt Q15046, whole entry, looked up: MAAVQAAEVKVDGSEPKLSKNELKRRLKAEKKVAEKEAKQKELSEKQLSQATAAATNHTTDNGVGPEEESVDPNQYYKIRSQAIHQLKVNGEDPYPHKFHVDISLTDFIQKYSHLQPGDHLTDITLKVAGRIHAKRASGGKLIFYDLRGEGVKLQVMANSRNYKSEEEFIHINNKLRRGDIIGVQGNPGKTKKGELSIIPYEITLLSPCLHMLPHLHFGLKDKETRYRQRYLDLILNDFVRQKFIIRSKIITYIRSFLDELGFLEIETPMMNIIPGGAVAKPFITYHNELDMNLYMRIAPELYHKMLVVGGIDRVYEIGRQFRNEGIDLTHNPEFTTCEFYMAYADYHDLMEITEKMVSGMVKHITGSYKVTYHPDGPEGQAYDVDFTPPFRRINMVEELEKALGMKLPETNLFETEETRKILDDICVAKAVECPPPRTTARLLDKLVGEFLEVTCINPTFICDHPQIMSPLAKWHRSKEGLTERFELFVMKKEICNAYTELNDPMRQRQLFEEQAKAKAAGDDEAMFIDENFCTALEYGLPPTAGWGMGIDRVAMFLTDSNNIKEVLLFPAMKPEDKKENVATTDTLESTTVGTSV
UniProt Q9P2N6: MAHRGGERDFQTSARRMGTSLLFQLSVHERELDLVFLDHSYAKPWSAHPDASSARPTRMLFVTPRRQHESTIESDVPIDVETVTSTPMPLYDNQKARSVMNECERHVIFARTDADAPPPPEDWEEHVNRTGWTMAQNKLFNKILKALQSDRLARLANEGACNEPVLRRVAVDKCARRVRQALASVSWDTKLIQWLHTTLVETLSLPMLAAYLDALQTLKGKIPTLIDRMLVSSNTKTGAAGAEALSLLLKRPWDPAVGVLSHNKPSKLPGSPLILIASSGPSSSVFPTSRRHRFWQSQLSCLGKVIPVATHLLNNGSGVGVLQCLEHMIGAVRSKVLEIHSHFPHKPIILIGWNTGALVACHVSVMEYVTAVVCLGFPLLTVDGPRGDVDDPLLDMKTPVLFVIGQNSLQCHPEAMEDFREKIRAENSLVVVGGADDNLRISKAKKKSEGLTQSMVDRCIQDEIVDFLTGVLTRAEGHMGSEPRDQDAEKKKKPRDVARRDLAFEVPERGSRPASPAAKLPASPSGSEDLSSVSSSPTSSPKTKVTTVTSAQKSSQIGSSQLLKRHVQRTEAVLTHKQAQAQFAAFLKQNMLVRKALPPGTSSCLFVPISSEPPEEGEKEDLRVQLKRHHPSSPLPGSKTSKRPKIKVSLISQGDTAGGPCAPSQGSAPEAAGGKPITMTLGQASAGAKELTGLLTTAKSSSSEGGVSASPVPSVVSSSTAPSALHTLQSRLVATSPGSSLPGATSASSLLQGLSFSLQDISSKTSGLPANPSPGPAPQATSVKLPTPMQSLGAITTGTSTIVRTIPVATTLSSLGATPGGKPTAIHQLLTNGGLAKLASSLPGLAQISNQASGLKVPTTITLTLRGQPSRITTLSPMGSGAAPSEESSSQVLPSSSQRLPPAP
UniProt Q8NFY9: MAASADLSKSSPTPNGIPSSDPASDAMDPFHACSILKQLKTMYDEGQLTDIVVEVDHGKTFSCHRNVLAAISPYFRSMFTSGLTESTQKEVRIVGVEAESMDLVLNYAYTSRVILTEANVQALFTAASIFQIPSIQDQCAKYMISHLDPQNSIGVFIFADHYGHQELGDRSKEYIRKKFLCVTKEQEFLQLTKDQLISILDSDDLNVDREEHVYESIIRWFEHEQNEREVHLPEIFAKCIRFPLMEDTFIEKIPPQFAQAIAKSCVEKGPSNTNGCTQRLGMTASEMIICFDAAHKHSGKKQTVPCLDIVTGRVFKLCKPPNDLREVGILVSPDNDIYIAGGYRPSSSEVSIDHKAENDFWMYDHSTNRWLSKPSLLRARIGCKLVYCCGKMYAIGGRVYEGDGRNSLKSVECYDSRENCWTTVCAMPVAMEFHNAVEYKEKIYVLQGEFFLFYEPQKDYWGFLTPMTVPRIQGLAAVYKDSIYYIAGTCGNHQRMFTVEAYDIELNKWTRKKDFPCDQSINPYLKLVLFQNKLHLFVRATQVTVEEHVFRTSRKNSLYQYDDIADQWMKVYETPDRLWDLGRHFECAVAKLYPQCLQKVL
UniProt Q9NXV2: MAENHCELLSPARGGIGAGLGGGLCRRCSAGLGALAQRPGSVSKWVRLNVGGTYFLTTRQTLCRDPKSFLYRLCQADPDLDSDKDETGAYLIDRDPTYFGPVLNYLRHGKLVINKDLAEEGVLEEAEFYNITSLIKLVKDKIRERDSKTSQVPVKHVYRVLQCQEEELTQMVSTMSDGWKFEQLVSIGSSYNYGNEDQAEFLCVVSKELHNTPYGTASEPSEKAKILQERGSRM
UniProt Q8IU81: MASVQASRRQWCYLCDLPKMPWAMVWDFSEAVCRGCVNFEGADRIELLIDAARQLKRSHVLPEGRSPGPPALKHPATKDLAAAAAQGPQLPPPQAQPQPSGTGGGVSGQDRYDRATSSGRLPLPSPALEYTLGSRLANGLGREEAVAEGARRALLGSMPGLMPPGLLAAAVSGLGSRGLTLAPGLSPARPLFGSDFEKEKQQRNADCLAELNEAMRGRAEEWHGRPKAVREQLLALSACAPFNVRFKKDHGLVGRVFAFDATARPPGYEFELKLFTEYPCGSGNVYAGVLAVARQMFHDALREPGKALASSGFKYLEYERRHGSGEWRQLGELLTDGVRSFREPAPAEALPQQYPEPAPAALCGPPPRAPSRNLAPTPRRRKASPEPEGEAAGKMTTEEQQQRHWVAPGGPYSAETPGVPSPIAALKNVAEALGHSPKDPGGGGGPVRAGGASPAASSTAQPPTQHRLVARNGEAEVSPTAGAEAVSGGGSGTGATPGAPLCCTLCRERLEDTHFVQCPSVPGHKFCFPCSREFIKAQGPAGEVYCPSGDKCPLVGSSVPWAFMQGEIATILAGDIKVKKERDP
UniProt Q7LBC6: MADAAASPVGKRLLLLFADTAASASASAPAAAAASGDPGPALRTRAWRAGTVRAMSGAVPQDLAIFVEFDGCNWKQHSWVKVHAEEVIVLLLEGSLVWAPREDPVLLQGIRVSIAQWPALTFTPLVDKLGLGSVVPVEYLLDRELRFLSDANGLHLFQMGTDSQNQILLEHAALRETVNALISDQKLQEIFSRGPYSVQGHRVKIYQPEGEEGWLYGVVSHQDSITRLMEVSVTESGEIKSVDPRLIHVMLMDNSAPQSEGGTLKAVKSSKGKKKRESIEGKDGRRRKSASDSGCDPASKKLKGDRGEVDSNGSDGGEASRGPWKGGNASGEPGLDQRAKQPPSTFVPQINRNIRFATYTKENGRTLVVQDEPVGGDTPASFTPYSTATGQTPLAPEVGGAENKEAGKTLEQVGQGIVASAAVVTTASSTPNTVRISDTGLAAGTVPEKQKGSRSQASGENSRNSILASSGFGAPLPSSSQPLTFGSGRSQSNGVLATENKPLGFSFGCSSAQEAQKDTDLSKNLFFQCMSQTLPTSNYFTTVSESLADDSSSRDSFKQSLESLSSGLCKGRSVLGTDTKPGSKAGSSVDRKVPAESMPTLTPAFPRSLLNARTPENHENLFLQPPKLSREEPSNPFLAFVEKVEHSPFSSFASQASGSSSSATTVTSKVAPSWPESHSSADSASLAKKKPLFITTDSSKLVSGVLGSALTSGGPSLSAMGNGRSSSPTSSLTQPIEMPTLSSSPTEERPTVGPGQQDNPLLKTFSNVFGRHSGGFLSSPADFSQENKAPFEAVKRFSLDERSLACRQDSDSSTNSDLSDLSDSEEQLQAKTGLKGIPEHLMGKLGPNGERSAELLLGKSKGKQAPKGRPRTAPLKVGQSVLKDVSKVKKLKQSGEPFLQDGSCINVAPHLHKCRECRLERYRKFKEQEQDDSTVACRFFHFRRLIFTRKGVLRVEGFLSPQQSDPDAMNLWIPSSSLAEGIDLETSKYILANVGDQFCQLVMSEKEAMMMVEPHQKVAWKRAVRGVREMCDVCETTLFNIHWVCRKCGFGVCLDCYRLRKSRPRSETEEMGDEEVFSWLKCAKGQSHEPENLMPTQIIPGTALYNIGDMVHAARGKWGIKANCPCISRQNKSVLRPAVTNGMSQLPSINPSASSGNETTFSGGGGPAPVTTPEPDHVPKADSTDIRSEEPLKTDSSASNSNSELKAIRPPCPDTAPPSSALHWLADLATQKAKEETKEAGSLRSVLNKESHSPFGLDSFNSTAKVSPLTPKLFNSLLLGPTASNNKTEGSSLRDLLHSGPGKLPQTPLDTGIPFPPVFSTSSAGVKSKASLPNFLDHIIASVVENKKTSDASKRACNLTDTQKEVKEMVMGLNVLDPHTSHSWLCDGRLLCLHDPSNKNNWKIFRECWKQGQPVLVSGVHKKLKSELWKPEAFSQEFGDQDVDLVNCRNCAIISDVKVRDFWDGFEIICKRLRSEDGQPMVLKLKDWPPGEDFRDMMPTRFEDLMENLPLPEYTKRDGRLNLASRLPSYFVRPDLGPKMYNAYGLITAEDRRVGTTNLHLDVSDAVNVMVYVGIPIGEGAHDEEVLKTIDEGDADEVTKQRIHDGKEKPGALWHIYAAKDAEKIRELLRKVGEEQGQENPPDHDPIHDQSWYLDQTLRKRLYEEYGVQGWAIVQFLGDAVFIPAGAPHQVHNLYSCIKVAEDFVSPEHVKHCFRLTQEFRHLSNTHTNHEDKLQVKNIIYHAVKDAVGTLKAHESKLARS
UniProt Q9ULR0: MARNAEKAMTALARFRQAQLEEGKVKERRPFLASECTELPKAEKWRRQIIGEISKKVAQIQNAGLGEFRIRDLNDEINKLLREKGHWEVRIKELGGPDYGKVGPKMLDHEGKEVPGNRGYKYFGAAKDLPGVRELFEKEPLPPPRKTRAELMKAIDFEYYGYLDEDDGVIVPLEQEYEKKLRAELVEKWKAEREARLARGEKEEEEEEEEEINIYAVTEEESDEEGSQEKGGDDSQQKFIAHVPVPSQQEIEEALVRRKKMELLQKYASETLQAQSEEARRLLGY
UniProt Q8TB96: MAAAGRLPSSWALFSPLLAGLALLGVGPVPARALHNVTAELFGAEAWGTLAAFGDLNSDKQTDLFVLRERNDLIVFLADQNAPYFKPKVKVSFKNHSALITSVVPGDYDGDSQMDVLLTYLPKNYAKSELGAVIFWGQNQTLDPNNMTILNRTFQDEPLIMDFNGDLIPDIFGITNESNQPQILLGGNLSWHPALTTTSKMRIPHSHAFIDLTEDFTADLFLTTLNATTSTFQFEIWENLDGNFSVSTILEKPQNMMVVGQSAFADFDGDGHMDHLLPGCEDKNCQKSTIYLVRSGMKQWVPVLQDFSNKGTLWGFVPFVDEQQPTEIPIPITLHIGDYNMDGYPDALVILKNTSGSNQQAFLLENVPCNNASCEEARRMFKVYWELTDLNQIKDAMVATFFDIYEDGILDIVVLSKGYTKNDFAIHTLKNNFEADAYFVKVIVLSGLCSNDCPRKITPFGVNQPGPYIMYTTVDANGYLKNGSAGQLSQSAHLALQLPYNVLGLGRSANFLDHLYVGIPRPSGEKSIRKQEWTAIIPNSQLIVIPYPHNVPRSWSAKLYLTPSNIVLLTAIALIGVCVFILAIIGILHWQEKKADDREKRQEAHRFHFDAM
UniProt Q7L273: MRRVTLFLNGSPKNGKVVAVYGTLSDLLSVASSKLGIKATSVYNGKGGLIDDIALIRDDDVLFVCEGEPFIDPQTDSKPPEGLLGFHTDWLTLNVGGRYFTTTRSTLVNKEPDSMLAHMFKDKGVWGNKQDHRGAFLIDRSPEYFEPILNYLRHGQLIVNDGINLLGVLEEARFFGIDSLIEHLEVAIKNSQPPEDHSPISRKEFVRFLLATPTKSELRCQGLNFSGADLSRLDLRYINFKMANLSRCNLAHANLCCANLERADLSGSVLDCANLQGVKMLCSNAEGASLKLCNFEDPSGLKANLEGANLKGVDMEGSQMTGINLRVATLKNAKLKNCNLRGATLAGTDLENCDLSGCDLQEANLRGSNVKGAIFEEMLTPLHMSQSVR
UniProt Q9BW62: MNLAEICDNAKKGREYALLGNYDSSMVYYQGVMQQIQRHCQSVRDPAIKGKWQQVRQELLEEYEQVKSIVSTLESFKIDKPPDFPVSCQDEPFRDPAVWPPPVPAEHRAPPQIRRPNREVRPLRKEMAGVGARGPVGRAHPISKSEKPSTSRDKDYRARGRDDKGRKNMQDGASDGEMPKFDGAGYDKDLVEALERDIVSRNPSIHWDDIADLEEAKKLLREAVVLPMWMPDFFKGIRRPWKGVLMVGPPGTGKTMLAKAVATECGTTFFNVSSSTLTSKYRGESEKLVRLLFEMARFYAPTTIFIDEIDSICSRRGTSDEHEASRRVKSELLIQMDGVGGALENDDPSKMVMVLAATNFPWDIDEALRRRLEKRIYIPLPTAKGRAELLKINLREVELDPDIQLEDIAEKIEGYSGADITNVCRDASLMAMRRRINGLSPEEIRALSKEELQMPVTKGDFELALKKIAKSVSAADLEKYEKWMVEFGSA

Compound in assay [1]: C/C(=N\NC(=O)C1=CC(=CC=C1)S(=O)(=O)N2CCOCC2)/C3=C(C=CC(=C3)Cl)O
Summed up: as §1

Compound in assay [2]: C1=CC(=CC=C1C2=NC3=C(N2)C=C(C=C3)C(=O)N)OC4=CC=C(C=C4)Cl
Summed up: as §1

Compound in assay [3]: C1=CC2=C(C=CC(=C2)/C=C\3/C(=O)NC(=NCC4=CC=CS4)S3)N=C1
The gist of the method: as §1

Compound in assay [4]: C1=CC2=NC=CN=C2C=C1/C=C/3\C(=O)NC(=O)S3
The gist of the method:
as §1

Compound in assay [5]: C1=CC=C(C=C1)C2=NC(=C(N2)C3=CC=NC=C3)C4=CC(=C(C=C4)Cl)O
The gist of the method: as §1

Compound in assay [6]: C1=CC=C2C(=C1)C3=NNC4=CC=CC(=C43)C2=O
The gist of the method:
as §1

Compound in assay [7]: C1CCN(C1)C(=O)NC2=CC=CC(=C2)NC3=NC=C(C(=N3)NCCC4=CN=CN4)Br
Summed up: as §1

Compound in assay [8]: C1CN(CCC1(CC2=CC=C(C=C2)Cl)N)C3=NC=NC4=C3C=CN4
The gist of the method:
as §1

Compound in a further assay: C1COCCN1CCN2C3=CC=CC=C3N=C2NC(=O)C4=CC(=CC=C4)[N+](=O)[O-] [IRAK-1-4 Inhibitor I]
Summed up:
as §1

This is an account of results in the supplement of paper PMC10849652.

This is one part of the list.

Consider KAT8 (UniProt Q9H7Z6), for which the log2 fold change with erlotinib was inactive: -0.001; in [1], inactive: -0.098; in assay [2], inactive: 0.031; in [3] it was inactive: 0.011; in assay [4], inactive: -0.014; in assay [5] it was inactive: 0.057. Also, the log2 fold change was inactive: 0.019 in assay [6], inactive: -0.029 in assay [7], inactive: -0.01 in [8] and inactive: 0.01 with IRAK-1-4 Inhibitor I.
As for KARS1 (UniProt Q15046), the log2 fold change was inactive: -0.015 in the assay with erlotinib; inactive: 0.002 in assay [1]; inactive: -0.04 in [2]; inactive: -0.016 in assay [3]; inactive: -0.005 in assay [4]; inactive: 0.004 in [5]. In addition, the log2 fold change is inactive: -0.021 in [6], inactive: -0.006 in assay [7], inactive: -0.021 in assay [8] and inactive: -0.017 in the assay with IRAK-1-4 Inhibitor I.
Take KANSL3 (UniProt Q9P2N6): the log2 fold change is inactive: -0.031 in the assay with erlotinib; inactive: -0.091 in assay [1]; inactive: -0.051 in assay [2]; inactive: -0.016 in [3]; inactive: 0.026 in assay [4]; inactive: 0.029 in [5]. Also, the log2 fold change in [6] is inactive: 0; in assay [7], inactive: -0.102; in assay [8] it was inactive: -0.101; in the assay with IRAK-1-4 Inhibitor I, inactive: -0.014.
Regarding KBTBD8 (UniProt Q8NFY9), the log2 fold change in the assay with erlotinib was inactive: 0.076; in [1], inactive: -0.024; in assay [2], inactive: 0.007; in assay [3] it was inactive: 0; in assay [4], inactive: -0.18; in [5], inactive: 0.006. In addition, the log2 fold change was inactive: -0.09 in assay [6], inactive: 0.03 in assay [7], inactive: 0.013 in assay [8] and inactive: 0.049 with IRAK-1-4 Inhibitor I.
On to INTS7 (UniProt Q9NVH2), for which the log2 fold change was inactive: 0.076 with erlotinib; inactive: -0.183 in assay [1]; inactive: -0.01 in assay [2]; inactive: 0.041 in assay [3]; active: 0.441 in assay [4]; inactive: -0.044 in assay [5]. For the same target, the log2 fold change in assay [6] was inactive: 0.026; in assay [7], inactive: -0.019; in [8], inactive: 0.035; in the assay with IRAK-1-4 Inhibitor I, inactive: 0.
Take KCTD5 (UniProt Q9NXV2): the log2 fold change is inactive: -0.042 in the assay with erlotinib; inactive: -0.04 in assay [1]; inactive: 0.017 in [2]; inactive: 0.041 in [3]; inactive: -0.026 in assay [4]; inactive: -0.043 in assay [5]. Moreover, the log2 fold change in assay [6] is inactive: -0.026; in assay [7] it was inactive: -0.062; in [8], inactive: 0.092; with IRAK-1-4 Inhibitor I it was inactive: 0.046.
IRF2BP1 (UniProt Q8IU81): the log2 fold change in the assay with erlotinib is inactive: -0.024; in assay [1], inactive: -0.114; in assay [2], inactive: 0.022; in assay [3] it was inactive: -0.016; in assay [4], inactive: 0.021; in assay [5] it was inactive: -0.039. The log2 fold change in [6] is inactive: -0.021; in assay [7], inactive: -0.057; in assay [8] it was inactive: 0.006; with IRAK-1-4 Inhibitor I, inactive: -0.018.
Take KDM3B (UniProt Q7LBC6): the log2 fold change was inactive: 0.014 with erlotinib; inactive: -0.05 in assay [1]; inactive: 0.011 in assay [2]; inactive: 0.024 in [3]; inactive: -0.032 in assay [4]; inactive: -0.006 in assay [5]. Further, the log2 fold change was inactive: -0.012 in [6], inactive: -0.012 in assay [7], inactive: 0.003 in [8] and inactive: 0.027 with IRAK-1-4 Inhibitor I.
With ISY1 isoform 1 (UniProt Q9ULR0), the log2 fold change in the assay with erlotinib is inactive: 0.022; in assay [1], inactive: 0.07; in assay [2] it was inactive: 0.02; in assay [3], inactive: 0.06; in [4], inactive: 0.018; in assay [5] it was inactive: 0.004. The log2 fold change in assay [6] was inactive: -0.004; in [7], inactive: 0.031; in assay [8], inactive: 0.068; with IRAK-1-4 Inhibitor I, inactive: 0.014.
Take IWS1 (UniProt Q96ST2): the log2 fold change in the assay with erlotinib is inactive: -0.022; in assay [1], inactive: -0.1; in assay [2] it was inactive: 0.027; in assay [3], inactive: 0.061; in assay [4], inactive: -0.022; in [5] it was inactive: 0.016. The log2 fold change is inactive: -0.035 in [6], inactive: -0.002 in assay [7], inactive: 0.002 in assay [8] and inactive: -0.002 in the assay with IRAK-1-4 Inhibitor I.
For ITFG1 (UniProt Q8TB96), the log2 fold change in the assay with erlotinib was inactive: -0.037; in [1] it was inactive: -0.129; in assay [2], inactive: 0.044; in [3], inactive: -0.026; in assay [4] it was inactive: -0.003; in assay [5], inactive: 0.011. The log2 fold change in assay [6] is inactive: -0.008; in assay [7] it was inactive: -0.016; in assay [8] it was inactive: -0.011; with IRAK-1-4 Inhibitor I it was inactive: 0.038.
Regarding KCTD9 (UniProt Q7L273), the log2 fold change is inactive: 0.114 in the assay with erlotinib; inactive: -0.123 in assay [1]; inactive: -0.141 in [2]; inactive: -0.037 in [3]; inactive: 0.013 in assay [4]; inactive: 0.062 in assay [5]. Moreover, the log2 fold change is inactive: 0.063 in [6], inactive: 0.058 in assay [7], inactive: 0.02 in assay [8] and inactive: -0.109 in the assay with IRAK-1-4 Inhibitor I.
KATNAL1 (UniProt Q9BW62): the log2 fold change was inactive: 0.306 with erlotinib; inactive: -0.034 in assay [1]; inactive: -0.16 in assay [2]; inactive: -0.036 in assay [3]; inactive: 0.015 in [4]; inactive: 0.086 in [5]. Moreover, the log2 fold change was inactive: 0.022 in assay [6], inactive: -0.11 in assay [7], inactive: -0.021 in [8] and inactive: 0.058 with IRAK-1-4 Inhibitor I.
